{"sequences": {"note": "Protein sequences, listed by entry. Tags and fused reporters are not part of them.", "UniProt Q9BUJ2": "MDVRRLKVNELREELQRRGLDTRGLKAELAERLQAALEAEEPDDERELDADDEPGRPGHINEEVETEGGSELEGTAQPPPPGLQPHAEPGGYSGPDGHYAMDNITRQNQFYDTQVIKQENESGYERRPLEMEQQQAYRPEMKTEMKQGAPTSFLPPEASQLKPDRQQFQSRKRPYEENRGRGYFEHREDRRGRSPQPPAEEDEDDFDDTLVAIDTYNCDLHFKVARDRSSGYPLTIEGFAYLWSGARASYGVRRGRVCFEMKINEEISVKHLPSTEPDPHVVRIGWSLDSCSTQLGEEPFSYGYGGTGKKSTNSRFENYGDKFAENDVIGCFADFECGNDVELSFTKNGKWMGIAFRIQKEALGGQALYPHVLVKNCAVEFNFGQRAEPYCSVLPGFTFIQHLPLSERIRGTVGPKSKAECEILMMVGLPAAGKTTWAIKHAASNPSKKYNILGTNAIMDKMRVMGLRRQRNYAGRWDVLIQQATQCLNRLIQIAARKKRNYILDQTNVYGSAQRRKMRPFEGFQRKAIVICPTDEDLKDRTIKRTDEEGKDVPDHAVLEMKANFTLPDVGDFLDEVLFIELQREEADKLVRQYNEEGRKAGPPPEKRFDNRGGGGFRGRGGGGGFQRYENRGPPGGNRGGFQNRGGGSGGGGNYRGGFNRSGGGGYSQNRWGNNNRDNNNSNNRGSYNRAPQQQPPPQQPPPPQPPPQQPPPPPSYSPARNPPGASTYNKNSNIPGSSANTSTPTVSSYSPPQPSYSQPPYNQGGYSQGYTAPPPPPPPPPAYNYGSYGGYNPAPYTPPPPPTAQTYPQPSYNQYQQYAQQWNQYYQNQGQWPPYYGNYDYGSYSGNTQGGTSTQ", "UniProt Q12888": "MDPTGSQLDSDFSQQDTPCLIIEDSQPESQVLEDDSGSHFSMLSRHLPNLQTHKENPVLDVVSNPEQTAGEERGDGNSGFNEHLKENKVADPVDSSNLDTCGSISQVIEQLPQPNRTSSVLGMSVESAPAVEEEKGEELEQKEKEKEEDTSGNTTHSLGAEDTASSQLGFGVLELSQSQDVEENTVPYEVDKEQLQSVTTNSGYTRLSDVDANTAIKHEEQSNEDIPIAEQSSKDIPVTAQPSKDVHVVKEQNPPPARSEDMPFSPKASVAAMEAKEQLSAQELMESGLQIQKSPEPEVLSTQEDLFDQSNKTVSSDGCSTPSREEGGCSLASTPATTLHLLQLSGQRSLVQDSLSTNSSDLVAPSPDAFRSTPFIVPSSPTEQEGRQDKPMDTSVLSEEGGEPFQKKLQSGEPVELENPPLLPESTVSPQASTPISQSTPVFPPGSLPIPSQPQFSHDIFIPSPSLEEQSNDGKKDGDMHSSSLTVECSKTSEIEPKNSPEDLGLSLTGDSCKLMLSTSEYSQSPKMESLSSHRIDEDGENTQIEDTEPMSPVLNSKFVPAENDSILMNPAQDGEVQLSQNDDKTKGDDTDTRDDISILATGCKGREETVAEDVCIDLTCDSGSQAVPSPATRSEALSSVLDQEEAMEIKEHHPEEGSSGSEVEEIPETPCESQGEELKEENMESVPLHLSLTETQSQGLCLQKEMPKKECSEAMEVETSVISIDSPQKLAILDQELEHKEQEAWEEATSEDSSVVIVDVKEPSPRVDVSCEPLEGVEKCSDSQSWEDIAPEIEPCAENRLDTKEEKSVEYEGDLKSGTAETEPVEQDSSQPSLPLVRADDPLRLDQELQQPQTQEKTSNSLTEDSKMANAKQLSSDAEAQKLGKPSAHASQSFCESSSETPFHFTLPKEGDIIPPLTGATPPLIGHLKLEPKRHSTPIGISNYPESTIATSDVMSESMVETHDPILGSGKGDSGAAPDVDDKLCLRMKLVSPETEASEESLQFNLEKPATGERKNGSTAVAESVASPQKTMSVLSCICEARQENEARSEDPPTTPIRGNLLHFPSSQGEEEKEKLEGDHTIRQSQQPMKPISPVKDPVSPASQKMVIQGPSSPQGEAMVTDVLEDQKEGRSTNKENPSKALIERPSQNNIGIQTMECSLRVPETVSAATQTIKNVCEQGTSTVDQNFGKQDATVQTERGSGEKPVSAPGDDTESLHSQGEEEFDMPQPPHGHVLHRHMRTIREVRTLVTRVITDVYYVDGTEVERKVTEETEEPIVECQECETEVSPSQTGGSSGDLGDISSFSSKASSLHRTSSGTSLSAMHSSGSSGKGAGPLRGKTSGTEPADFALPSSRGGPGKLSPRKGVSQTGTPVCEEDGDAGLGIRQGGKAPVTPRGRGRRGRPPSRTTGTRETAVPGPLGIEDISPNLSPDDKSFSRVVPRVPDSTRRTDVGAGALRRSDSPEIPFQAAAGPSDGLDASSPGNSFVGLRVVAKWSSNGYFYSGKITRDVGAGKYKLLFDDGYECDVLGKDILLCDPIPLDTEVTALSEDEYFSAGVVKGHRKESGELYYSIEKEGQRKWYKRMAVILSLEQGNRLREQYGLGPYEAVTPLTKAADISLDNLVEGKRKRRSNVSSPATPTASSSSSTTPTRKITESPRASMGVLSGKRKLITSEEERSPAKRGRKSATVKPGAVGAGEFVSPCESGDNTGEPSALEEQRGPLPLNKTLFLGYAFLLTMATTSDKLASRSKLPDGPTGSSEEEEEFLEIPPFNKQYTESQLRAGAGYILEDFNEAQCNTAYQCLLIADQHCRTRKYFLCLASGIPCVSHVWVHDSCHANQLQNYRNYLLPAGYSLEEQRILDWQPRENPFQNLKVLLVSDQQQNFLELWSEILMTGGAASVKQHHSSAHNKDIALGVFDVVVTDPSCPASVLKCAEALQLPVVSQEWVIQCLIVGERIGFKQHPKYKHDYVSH", "UniProt Q92878": "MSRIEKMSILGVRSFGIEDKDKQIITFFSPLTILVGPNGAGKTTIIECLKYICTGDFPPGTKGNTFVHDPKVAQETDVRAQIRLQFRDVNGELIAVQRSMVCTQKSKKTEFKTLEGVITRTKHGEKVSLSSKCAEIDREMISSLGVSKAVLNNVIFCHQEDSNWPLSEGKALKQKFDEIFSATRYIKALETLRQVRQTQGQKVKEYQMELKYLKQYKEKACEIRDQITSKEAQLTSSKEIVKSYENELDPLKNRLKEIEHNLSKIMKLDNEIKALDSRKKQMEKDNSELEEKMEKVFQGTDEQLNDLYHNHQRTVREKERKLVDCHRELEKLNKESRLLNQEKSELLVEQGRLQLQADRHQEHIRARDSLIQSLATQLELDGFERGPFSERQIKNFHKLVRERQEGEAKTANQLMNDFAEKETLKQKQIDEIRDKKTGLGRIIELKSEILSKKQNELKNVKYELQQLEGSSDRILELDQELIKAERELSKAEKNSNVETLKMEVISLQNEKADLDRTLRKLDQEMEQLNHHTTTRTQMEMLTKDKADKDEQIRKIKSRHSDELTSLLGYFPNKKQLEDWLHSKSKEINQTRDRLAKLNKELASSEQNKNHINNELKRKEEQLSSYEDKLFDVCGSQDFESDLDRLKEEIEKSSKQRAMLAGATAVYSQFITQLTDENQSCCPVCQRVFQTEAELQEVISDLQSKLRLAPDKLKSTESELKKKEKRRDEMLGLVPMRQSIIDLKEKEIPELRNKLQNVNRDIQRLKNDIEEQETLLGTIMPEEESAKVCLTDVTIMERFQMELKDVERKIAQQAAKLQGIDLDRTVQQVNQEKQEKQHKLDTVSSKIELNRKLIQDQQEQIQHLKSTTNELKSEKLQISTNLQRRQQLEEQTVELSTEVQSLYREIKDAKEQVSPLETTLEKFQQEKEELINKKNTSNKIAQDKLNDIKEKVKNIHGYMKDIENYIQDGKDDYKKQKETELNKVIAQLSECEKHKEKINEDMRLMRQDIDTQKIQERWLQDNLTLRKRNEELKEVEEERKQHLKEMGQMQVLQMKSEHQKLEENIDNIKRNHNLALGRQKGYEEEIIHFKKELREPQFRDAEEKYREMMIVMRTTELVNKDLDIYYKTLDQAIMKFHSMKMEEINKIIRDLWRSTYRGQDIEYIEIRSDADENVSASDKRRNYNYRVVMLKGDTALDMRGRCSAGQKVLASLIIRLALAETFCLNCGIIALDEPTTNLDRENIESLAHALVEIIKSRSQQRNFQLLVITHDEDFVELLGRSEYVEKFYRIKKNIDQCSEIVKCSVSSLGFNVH", "UniProt P18887": "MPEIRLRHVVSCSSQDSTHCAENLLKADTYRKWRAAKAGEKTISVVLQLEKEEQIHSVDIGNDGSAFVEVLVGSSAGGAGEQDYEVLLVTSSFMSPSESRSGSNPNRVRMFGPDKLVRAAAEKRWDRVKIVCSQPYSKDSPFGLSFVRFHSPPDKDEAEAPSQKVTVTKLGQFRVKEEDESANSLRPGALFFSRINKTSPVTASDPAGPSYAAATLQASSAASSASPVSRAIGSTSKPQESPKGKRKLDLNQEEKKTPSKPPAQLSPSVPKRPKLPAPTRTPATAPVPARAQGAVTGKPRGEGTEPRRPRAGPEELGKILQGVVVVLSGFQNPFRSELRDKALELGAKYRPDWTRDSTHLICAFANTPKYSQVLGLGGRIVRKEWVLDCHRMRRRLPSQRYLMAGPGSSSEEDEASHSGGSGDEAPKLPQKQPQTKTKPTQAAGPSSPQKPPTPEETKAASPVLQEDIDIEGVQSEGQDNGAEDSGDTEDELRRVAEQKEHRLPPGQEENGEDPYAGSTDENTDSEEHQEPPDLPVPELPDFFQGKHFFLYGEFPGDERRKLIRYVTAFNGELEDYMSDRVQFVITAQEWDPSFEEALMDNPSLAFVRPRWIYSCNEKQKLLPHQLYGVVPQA", "UniProt P15927": "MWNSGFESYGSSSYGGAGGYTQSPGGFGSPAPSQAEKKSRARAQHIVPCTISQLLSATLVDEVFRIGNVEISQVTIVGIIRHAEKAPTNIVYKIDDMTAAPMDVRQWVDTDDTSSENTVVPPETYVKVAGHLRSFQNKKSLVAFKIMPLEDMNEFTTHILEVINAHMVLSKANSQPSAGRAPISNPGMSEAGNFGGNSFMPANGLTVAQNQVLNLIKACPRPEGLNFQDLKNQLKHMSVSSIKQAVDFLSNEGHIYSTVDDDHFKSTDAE"}, "source": "paper PMC9379416", "key": {"[1]": {"target": "FLAG-hnRNP UL1, stably expressed (HEK UL1 OE cells) (human) (UniProt Q9BUJ2)", "assay": "co-IP; magnetic beads conjugated with anti-FLAG antibodies; 250 ug protein extract of NO and CN fractions of HEK UL1 OE cells; overnight at 4 C; washes in PBS-T and lysis buffer (50 mM Tris pH 7.8, 150 mM NaCl, 0.1% NP40); HEK WT extract as negative control; western blot"}, "[2]": {"target": "hnRNP UL1 (heterogeneous nuclear ribonucleoprotein U-like protein 1), endogenous (human (endogenous in HEK293)) (UniProt Q9BUJ2)", "assay": "co-IP; anti-hnRNP UL1 antibodies on Dynabeads Protein G; 250 ug protein extract of NO and CN fractions of HEK WT cells; 1.5 h at 4 C; washes in PBS with 0.02% Tween 20; beads without antibody as negative control; western blot"}}, "note": "These are yes or no findings as the source states them, for the method shown. In cells and extracts the contact can be indirect. Some results given as binding are weak or reduced against the parent protein; the word gives no strength.", "data": [{"substance": "53BP1 (from UniProt Q12888 1-1972)", "values": [{"measurement": "binding", "setting": "[1]", "value": "no binding"}]}, {"substance": "RAD50 (from UniProt Q92878 1-1312)", "values": [{"measurement": "binding", "setting": "[1]", "value": "no binding"}]}, {"substance": "X-ray repair cross-complementing protein 1 (XRCC1) (from UniProt P18887 1-633)", "values": [{"measurement": "binding", "setting": "[1]", "value": "binds weakly"}]}, {"substance": "replication protein A 32 kDa subunit (RPA32), detected as pRPA32 (from UniProt P15927 1-270)", "values": [{"measurement": "binding", "setting": "[2]", "value": "binds"}]}]}
